Results: publication PMC6478765
No constants are given. Whether binding was seen depends on the method and setting. Binding seen in cells or lysates may run through a third protein. Some binding calls cover weakened binding; strength is not graded here.

Amino acid sequences for entries named in this document (tags omitted).
UniProt P21796: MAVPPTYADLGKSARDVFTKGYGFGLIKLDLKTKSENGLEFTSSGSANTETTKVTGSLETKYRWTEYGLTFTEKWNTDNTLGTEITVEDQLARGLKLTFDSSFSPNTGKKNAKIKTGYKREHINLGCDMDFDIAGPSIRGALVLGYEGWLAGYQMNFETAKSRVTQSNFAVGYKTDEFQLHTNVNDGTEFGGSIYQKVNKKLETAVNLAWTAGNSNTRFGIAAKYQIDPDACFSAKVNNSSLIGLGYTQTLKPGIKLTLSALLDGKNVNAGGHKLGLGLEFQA

Molecular target: voltage dependent anion channel 1 (VDAC1) (human (endogenous in MCF7)) (UniProt P21796)
Assay: co-IP; MCF7 lysates; IP by VDAC1 antibody, immunoblot for HKDC1 and VDAC1; stable cell lines: empty control (CTL), overexpression of PGC1β or HKDC1, knockdown of PGC1β or HKDC1 by lentivirus

B1: Hexokinase domain component 1 (HKDC1) (protein, UniProt Q2TB90-1 1-917)
chain: MFAVHLMAFYFSKLKEDQIKKVDRFLYHMRLSDDTLLDIMRRFRAEMEKGLAKDTNPTAAVKMLPTFVRAIPDGSENGEFLSLDLGGSKFRVLKVQVAEEGKRHVQMESQFYPTPNEIIRGNGTELFEYVADCLADFMKTKDLKHKKLPLGLTFSFPCRQTKLEEGVLLSWTKKFKARGVQDTDVVSRLTKAMRRHKDMDVDILALVNDTVGTMMTCAYDDPYCEVGVIIGTGTNACYMEDMSNIDLVEGDEGRMCINTEWGAFGDDGALEDIRTEFDRELDLGSLNPGKQLFEKMISGLYLGELVRLILLKMAKAGLLFGGEKSSALHTKGKIETRHVAAMEKYKEGLANTREILVDLGLEPSEADCIAVQHVCTIVSFRSANLCAAALAAILTRLRENKKVERLRTTVGMDGTLYKIHPQYPKRLHKVVRKLVPSCDVRFLLSESGSTKGAAMVTAVASRVQAQRKQIDRVLALFQLTREQLVDVQAKMRAELEYGLKKKSHGLATVRMLPTYVCGLPDGTEKGKFLALDLGGTNFRVLLVKIRSGRRSVRMYNKIFAIPLEIMQGTGEELFDHIVQCIADFLDYMGLKGASLPLGFTFSFPCRQMSIDKGTLIGWTKGFKATDCEGEDVVDMLREAIKRRNEFDLDIVAVVNDTVGTMMTCGYEDPNCEIGLIAGTGSNMCYMEDMRNIEMVEGGEGKMCINTEWGGFGDNGCIDDIWTRYDTEVDEGSLNPGKQRYEKMTSGMYLGEIVRQILIDLTKQGLLFRGQISERLRTRGIFETKFLSQIESDRLALLQVRRILQQLGLDSTCEDSIVVKEVCGAVSRRAAQLCGAGLAAIVEKRREDQGLEHLRITVGVDGTLYKLHPHFSRILQETVKELAPRCDVTFMLSEDGSGKGAALITAVAKRLQQAQKEN
  binding: binds
